Assay results published in patent publication US20220089776A1 (OREGON HEALTH AND SCIENCE UNIVERSITY, published 2022).
Results are given in words; binding and its absence hold for the method and conditions named. For some assays here: Binding calls can cover weak binding; strength is not graded here.

How the values were obtained:
[1] = target: red kangaroo FXII (red kangaroo); test: Western blot of platelet-poor plasma, non-reduced SDS-PAGE
marmoset FXII (marmoset) [2] = test: as above
llama FXII (llama) [3] = test: as above
tiger FXII (tiger) [4] = test: as above
dog FXII (dog) [5] = test: as above
raccoon FXII (raccoon) [6] = test: as above
chicken FXII (chicken) [7] = test: as above
cat FXII (cat) [8] = test: as above
[9] = target: giant anteater FXII (giant anteater); test: as above
beagle FXII (beagle) [10] = test: as above
horse FXII (horse) [11] = test: as above
elephant FXII (elephant) [12] = test: as above
[13] = target: red kangaroo FXII (red kangaroo); test: Western blot of platelet-poor plasma; primary antibody murine 5C12
marmoset FXII (marmoset) [14] = test: as above
llama FXII (llama) [15] = test: as above
tiger FXII (tiger) [16] = test: as above
dog FXII (dog) [17] = test: as above
raccoon FXII (raccoon) [18] = test: as above
chicken FXII (chicken) [19] = test: as above
cat FXII (cat) [20] = test: as above
beagle FXII (beagle) [21] = test: as above
horse FXII (horse) [22] = test: as above
elephant FXII (elephant) [23] = test: as above
baboon FXII (baboon) [24] = test: Western blot of platelet-poor plasma after SDS-PAGE; primary antibody murine 5C12, secondary goat anti-mouse polyclonal
baboon FXII (baboon) [25] = test: Western blot of platelet-poor plasma
[26] = target: African green monkey FXII (African green monkey); test: Western blot of platelet-poor plasma

B1: mouse monoclonal antibody 5C12 (antibody, mouse IgG1, kappa, V domains shown)
VH: DVQLQESGPDLVKPSQSLSLTCTVTGYSITSGYSWHWIRQFPGNNLEWMGYIQYSGNTNSNPSLKSRISITRDTSKNQFFLHLNSVTTEDTATYYCARWGSFDYWGQGTTLTVSS
VL: QIVLTQSPAIMSASPGEKVTMTCSASSSVNYMHWYQQKSGTSPKRWIYDTSKLASGVPARFSGSGSGTSYSLTISSMEAGDAATYYCQQWSGNPPTFGGGTILEIKR
notes: Purified from hybridoma; also called AB053; 5C12 MAb
[1]
  binding: no binding
Marmoset FXII (marmoset) [2]
  binding: no binding
Llama FXII (llama) [3]
  binding: no binding
Tiger FXII (tiger) [4]
  binding: no binding
Dog FXII (dog) [5]
  binding: no binding
Raccoon FXII (raccoon) [6]
  binding: no binding
Chicken FXII (chicken) [7]
  binding: no binding
Cat FXII (cat) [8]
  binding: no binding
[9]
  binding: no binding
Beagle FXII (beagle) [10]
  binding: no binding
Horse FXII (horse) [11]
  binding: no binding
Elephant FXII (elephant) [12]
  binding: no binding
[13]
  binding: no binding
Marmoset FXII (marmoset) [14]
  binding: no binding
Llama FXII (llama) [15]
  binding: no binding
Tiger FXII (tiger) [16]
  binding: no binding
Dog FXII (dog) [17]
  binding: no binding
Raccoon FXII (raccoon) [18]
  binding: no binding
Chicken FXII (chicken) [19]
  binding: no binding
Cat FXII (cat) [20]
  binding: no binding
Beagle FXII (beagle) [21]
  binding: no binding
Horse FXII (horse) [22]
  binding: no binding
Elephant FXII (elephant) [23]
  binding: no binding
Baboon FXII (baboon) [24]
  binding: binds
Baboon FXII (baboon) [25]
  binding: binds
[26]
  binding: binds
